Results taken from PubChem BioAssay AID2685 (National Center for Advancing Translational Sciences (NCATS), 2010).
This is one part of the list. These are further read-outs of the screen, such as a control signal, another cell line or another target. No call is given for them. Compounds called inactive in the main read-out are mostly missing here. The note in brackets gives the kind of curve behind each potency; many fits are weak.

Test: qHTS Assay for Lipid Storage Modulators in Drosophila S3 Cells;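 as to cell number change: cells counted by Cell Tracker Red CMTPX staining in the red channel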
Details: BODIPY lipid droplet fluorescence, 18-24 h; for cell number change: measured here: cell count max response, cells fed with added oleic acid
In short: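 Drosophila S3 cells got compounds at several concentrations plus oleic acid (400 uM solution). Laser-scanning cytometry with 488 nm excitation read lipid droplets at 500-530 nm and cells at 575-640 nm. Percent activity was relative to 20 uM Triacsin C.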

[1] = measured here: cell number channel AC50, cells fed with added oleic acid
[2] = measured here: lipid fluorescence (Fed channel) AC50, cells fed with added oleic acid

Structure (SMILES) | cell number change | AC50 [1] | AC50 [2]
O=[N+]([O-])c1c(NCCCO)cc(N2CCN(Cc3ccc4c(c3)OCO4)CC2)c2nonc12 | -50.6% | 0.00461 µM [falling, full curve, poor fit] | 1.84 µM [falling, partial curve]
CCN1CCN(c2ccc(S(=O)(=O)N3CCCCC3)cc2NC(=O)/C=C/c2ccc(OC(F)F)cc2)CC1 | -25% | 4.61 µM [rising, single point] | –
O=C(OCC(=O)N1CCc2ccccc21)c1cc(S(=O)(=O)N2CCOCC2)ccc1F | -71.7% | 16.4 µM [falling, single point] | –
C/C(=N\NC(=O)c1ccccc1O)C1CC1 | 26.1% | – | 0.206 µM [rising, single point]
Cc1ccc(CNC(=O)C2CCN(C(=O)Nc3ccc(C)cc3)CC2)cc1 | -6.85% | – | 29.1 µM [rising, single point]
CCC(=O)c1ccc(OCC(=O)OCC(=O)N(C)CC(=O)Nc2ccc(F)cc2)cc1 | 6.37% | – | 4.11 µM [falling, single point]
CCCn1c(NC(=S)Nc2ccccc2)nc2ccccc21 | 0.302% | – | 0.82 µM [falling, full curve, poor fit]
COc1ccc(S(=O)(=O)NCCSc2ccccc2)cc1OC | 34.1% | 29.1 µM [rising, single point] | –
C[C@H](NC(=O)OC(C)(C)C)c1nnc(SCC(=O)c2ccc(Cl)cc2)o1 | 3.58% | – | 0.116 µM [falling, full curve]
CCCc1ccc(OCc2ccc(C(=O)N3CCCC3)o2)cc1 | -16.7% | 0.164 µM [falling, single point] | 29.1 µM [falling, partial curve, poor fit]
Cc1ccc(C(=O)NCc2ccccc2)cc1Br | 117% | 0.146 µM [rising, full curve] | 23.1 µM [rising, single point]
Cc1cccc(NC(=O)CSCC(=O)N2CCN(c3cccc(C(F)(F)F)c3)CC2)c1 | -3.28% | – | 14.6 µM [falling, partial curve]
CCN1CCN(C(=O)c2ccc(Cn3c(=O)[nH]c4cc(OC)c(OC)cc4c3=O)cc2)CC1 | 15.6% | – | –
S=c1[nH]nc(-c2cc(-c3ccsc3)n[nH]2)n1-c1cccc2ccccc12 | 24.5% | 0.82 µM [rising, full curve, poor fit] | 0.82 µM [rising, full curve, poor fit]
O=C(Cc1cccc(C(F)(F)F)c1)OCN1C(=O)c2ccccc2C1=O | 18.3% | – | 1.16 µM [rising, single point]
N#C/C(=C\Nc1ccc(F)c(Cl)c1)S(=O)(=O)c1ccccn1 | -36.3% | – | 23.1 µM [falling, single point]
COc1ccc(-c2cn3cccc(C)c3n2)cc1Br | – | – | 20.6 µM [rising, single point]
O=C(CSC1=NS(=O)(=O)c2ccccc2N1)NCc1ccc(F)cc1 | -12.5% | – | 0.461 µM [falling, full curve, poor fit]
CNC(=O)COC(=O)c1cc(-c2ccccc2)nn1-c1ccccc1 | 8.55% | 2.31 µM [falling, partial curve] | 6.51 µM [falling, single point]

Structure (SMILES) | cell number change | AC50 [1] | AC50 [2]
CC(=O)Nc1ccccc1-c1nc2ccccc2nc1OCC(=O)c1ccc2ccccc2c1 | -13% | – | 6.51 µM [rising, single point]
CCN(c1ccccc1)S(=O)(=O)c1ccc2c(c1)N(C(C)=O)CCS2 | 7.09% | – | –
CCn1c(Sc2ccc(N)cc2Cl)nc2ccccc21 | -5.88% | – | 1.16 µM [rising, partial curve]
O=[N+]([O-])c1ccc(O)c(/C=N/NC2=NS(=O)(=O)c3ccccc32)c1 | – | – | 6.51 µM [rising, partial curve]
O=S(=O)(c1cccc2cccnc12)N1CCCc2ccccc21 | 19.2% | – | 0.116 µM [rising, full curve, poor fit]
CCOc1ccc2oc(C(=O)OCC(=O)N3C(C)CCCC3C)c(C)c2c1 (stereo not drawn) | -44.9% | 11.6 µM [falling, partial curve] | 1.3 µM [falling, full curve]
Cn1c(CNc2nc3ccccc3n2CCN2CCCCC2)nc2ccccc21 | -8.31% | – | 2.59 µM [rising, single point]
COc1ccccc1-c1c(C(F)(F)F)oc2cc(OS(C)(=O)=O)ccc2c1=O | -15.2% | – | –
CC(Cc1ccsc1)NC(=O)CCc1nnc(CCc2ccccc2)o1 (stereo not drawn) | -42.9% | 5.8 µM [falling, full curve, poor fit] | 16.4 µM [falling, partial curve]
O=C(COC(=O)c1ccc(OC(F)(F)F)cc1)NCCN1C(=O)CSC1=O | -48.6% | 0.651 µM [falling, full curve] | 0.651 µM [falling, full curve]
CCOC(=O)N1CCN(c2ncnc3c2oc2nc(C(C)C)c4c(c23)CCC4)CC1 | 20.1% | – | 0.82 µM [falling, full curve]
C=C(C)CSc1nnc2n(Cc3ccccc3)c(=O)c3c4c(sc3n12)CCC4 | 18.9% | – | –
COc1ccc([C@H]2CC(=O)C=C(c3ccc(NC(C)=O)cc3)C2)cc1OC | -4.59% | 0.164 µM [falling, partial curve] | 1.3 µM [falling, partial curve, poor fit]
O=C(/C=C/c1ccc([N+](=O)[O-])o1)NNC(=O)c1ccc(F)cc1 | -41.8% | 1.16 µM [falling, full curve] | 1.3 µM [falling, full curve]
CN(C)S(=O)(=O)N(CC(=O)N1CCC(Cc2ccccc2)CC1)c1ccccc1 | -31.5% | 32.6 µM [falling, single point] | 0.651 µM [rising, single point]
CC(=O)CCCC(NS(=O)(=O)CCC(Cl)(Cl)Cl)c1ccccc1 (stereo not drawn) | 23.6% | – | 29.1 µM [rising, single point]
O=C(NC(=S)NCc1ccco1)c1ccc(Br)cc1 | 30.2% | 0.092 µM [rising, full curve] | 8.2 µM [rising, partial curve]
COc1ccc(S(=O)(=O)N/N=C\c2ccc([N+](=O)[O-])o2)c(OC)c1 | – | – | 29.1 µM [falling, single point]
Cc1cccc2c(CC(=O)O)noc12 | 50% | 16.4 µM [rising, single point] | 11.6 µM [rising, partial curve, poor fit]

Fetched one by one from the entries so far, 2 records:
Structure (SMILES) | cell number change | AC50 [1] | AC50 [2]
Cn1c(CNc2nc3ccccc3n2CCN2CCCCC2)nc2ccccc21 | -8.31% | – | 2.59 µM [rising, single point]
C/C(=N\NC(=O)c1ccccc1O)C1CC1 | 26.1% | – | 0.206 µM [rising, single point]

(listing goes on)

Structure (SMILES) | cell number change | AC50 [1] | AC50 [2]
COc1cc(CCC(=O)OCC(=O)Nc2ccc(C)cc2Br)cc(OC)c1OC | -10.5% | 7.31 µM [falling, single point] | –
O=C(CSc1nccc(=O)[nH]1)Nc1ccc(Br)c(Cl)c1 | -4.68% | 0.326 µM [falling, partial curve] | –
CCOc1ccc(S(=O)(=O)NC(C)C(=O)NC2CCCC2)cc1 (stereo not drawn) | -14.7% | – | 2.06 µM [rising, partial curve]
CCCCNC(=O)Nc1cc(C(=O)OC)ccc1Cl | 5.19% | – | 29.1 µM [rising, single point]
Cc1ccc(OC(=O)C2CSC3(C)CCC(=O)N23)c(Br)c1 (stereo not drawn) | -21.3% | 0.13 µM [falling, full curve] | –
O=S(=O)(c1ccccc1)C1CON(Cc2ccccc2)C1c1ccccc1 (stereo not drawn) | 7.19% | – | 6.51 µM [falling, single point]
CC(=O)Nc1ccc(C(=O)Nc2ccc(S(=O)(=O)N3CCOCC3)cc2)cc1 | – | – | 1.84 µM [rising, partial curve, poor fit]
O=C(CN1C(=O)NC2(CCOc3ccccc32)C1=O)Nc1ccc(Br)cc1F (stereo not drawn) | -1.47% | – | 3.26 µM [rising, single point]
NC(=S)Cc1ccccc1Cl | 10.8% | – | 6.51 µM [falling, single point]
O=c1[nH]c2ccc(NS(=O)(=O)c3ccc4ccccc4c3)cc2[nH]1 | 9.27% | – | –
CC(C)Oc1ccc(Nc2ncnc3ccccc23)cc1 | -41.5% | 29.1 µM [falling, single point] | –
O=C(Nc1ccc([N+](=O)[O-])cn1)c1cc(-c2cccc(Br)c2)nc2ccccc12 | -53.2% | 18.4 µM [falling, single point] | 23.1 µM [rising, partial curve]
Cc1[nH]c2ccccc2c1Cc1nnc(SCc2ccccc2)o1 | – | 3.66 µM [rising, single point] | –
CCSc1nnc(NC(=O)CC)s1 | 8.1% | – | 0.13 µM [rising, full curve, poor fit]
O=C(Nc1ccccc1Cl)C1CCN(S(=O)(=O)c2cccc3nonc23)CC1 | -87.4% | 29.1 µM [falling, single point] | –
COc1ccc(NS(=O)(=O)c2cccc(C(=O)NCCCn3ccnc3)c2)cc1 | 69% | – | –
CC1(C)Cc2c(sc3nc(-c4cccs4)n(N)c(=O)c23)CO1 | -31.8% | 29.1 µM [falling, single point] | 20.6 µM [falling, partial curve]
CN(CCC1CCOCC1)C(=O)CC1C(=O)NCCN1Cc1cccc(F)c1 (stereo not drawn) | -2.45% | – | 0.0651 µM [rising, full curve, poor fit]
N#Cc1cnn2c(-c3cccc([N+](=O)[O-])c3)ccnc12 | 22% | – | 32.6 µM [rising, single point]
